Laboratory results from patent US20120190868A1, “SUBSTITUTED BENZOCHALCOGENOACENE COMPOUND, THIN FILM COMPRISING THE COMPOUND, AND ORGANIC SEMICONDUCTOR DEVICE INCLUDING THE THIN FILM” (NATIONAL UNIVERSITY CORPORATION NAGOYA UNIVERSITY, priority 2009, published 2012).

Tests used:
[1] = Electric performances of organic transistor having thin film formed by vacuum deposition method; settings: for saturated field-effect mobility of the carrier (carrier mobility): thin film by vacuum deposition per Example 3 (FIG. 1 device), measured in vacuum, compound [5]: substrate temperature 60° C.; for on/off ratio (ratio of drain currents at gate voltages of 0 V and −50 V): drain voltage Vd −50 V
[2] = Electric performances of organic transistor having thin film formed by applying and film-forming process (spin coat)
[3] = thin film by vacuum deposition per Example 3
[4] = vacuum deposition, substrate temperature 80° C. (Example 8), Vd −40V, Vg 20 to −40V

In the case of `COc1ccc2sc3c(sc4c5cc(OC)ccc5sc43)c2c1` [Compound C-1, reference compound], the “saturated field-effect mobility of the carrier (carrier mobility)” value [1] is reported as 10^−5 cm^2/Vs and the “on/off ratio (ratio of drain currents at gate voltages of 0 V and −50 V)” value [1, 3] is reported as 10^3.

For `CCCCCCc1ccc2c(c1)sc1c2sc2c3ccc(CCCCCC)cc3sc21` [[5]], the “saturated field-effect mobility of the carrier (carrier mobility)” value [1] was 1.6 cm^2/Vs, the “on/off ratio (ratio of drain currents at gate voltages of 0 V and −50 V)” value [1, 3] was 10^7 and the transistor type ([1]; thin film by vacuum deposition per Example 3, minus drain current increased with applied minus gate voltage) was “p-type organic transistor”. The “field-effect mobility of the carrier (carrier mobility)” value ([2]; thin film spin-coated from 0.5 wt % tetrahydrofuran solution, kept at 80° C. for 30 minutes, FIG. 2 device (Example 6)) was 0.3 cm^2/Vs and the on/off ratio ([2]; thin film spin-coated from 0.5 wt % tetrahydrofuran solution, FIG. 2 device (Example 6)) was 10^7.

In the case of `CCCCCCCCCCCCc1ccc2c(c1)sc1c2sc2c3ccc(CCCCCCCCCCCC)cc3sc21` [[14]], the “field-effect mobility (carrier mobility)” value [1, 4] is reported as 0.4 cm^2/Vs, the on/off ratio [1, 4] is reported as 10^7 and the “field-effect mobility (carrier mobility)” value ([2]; spin coating of 0.5 wt % dichlorobenzene solution heated at 100° C., dried at 120° C. for 30 minutes, Vd −40V, Vg 20 to −40V) is reported as 0.5 cm^2/Vs. For the same compound, the on/off ratio ([2]; spin coating of 0.5 wt % dichlorobenzene solution heated at 100° C., Vd −40V, Vg 20 to −40V) was 10^7.
